Test results as given in the supplement of paper PMC10849652.
The other results are listed elsewhere or left out.

Chains of the proteins cited; added tags and fusions are not shown. Lines headed by an entry give the natural chain unless they say otherwise; changes in a name come on top.
UniProt Q15654: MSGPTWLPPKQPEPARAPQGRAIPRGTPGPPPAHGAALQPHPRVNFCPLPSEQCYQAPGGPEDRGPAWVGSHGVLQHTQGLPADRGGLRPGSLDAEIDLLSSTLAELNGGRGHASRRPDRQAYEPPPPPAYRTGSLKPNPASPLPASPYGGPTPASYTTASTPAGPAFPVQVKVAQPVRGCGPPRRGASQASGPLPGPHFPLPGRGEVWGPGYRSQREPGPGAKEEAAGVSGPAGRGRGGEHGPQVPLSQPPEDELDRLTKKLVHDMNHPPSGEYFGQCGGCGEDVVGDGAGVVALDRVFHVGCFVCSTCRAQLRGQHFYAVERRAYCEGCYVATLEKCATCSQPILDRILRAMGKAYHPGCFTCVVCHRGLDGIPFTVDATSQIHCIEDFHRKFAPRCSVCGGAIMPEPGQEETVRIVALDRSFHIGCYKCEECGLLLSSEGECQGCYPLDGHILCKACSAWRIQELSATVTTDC
UniProt Q96S44: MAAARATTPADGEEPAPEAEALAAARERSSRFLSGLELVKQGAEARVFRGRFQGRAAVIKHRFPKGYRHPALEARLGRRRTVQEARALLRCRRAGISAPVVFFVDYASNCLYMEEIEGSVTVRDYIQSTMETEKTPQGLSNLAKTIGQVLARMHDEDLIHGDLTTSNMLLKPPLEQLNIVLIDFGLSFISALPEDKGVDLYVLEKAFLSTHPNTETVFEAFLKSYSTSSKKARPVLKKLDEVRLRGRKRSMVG
UniProt Q9H3S4: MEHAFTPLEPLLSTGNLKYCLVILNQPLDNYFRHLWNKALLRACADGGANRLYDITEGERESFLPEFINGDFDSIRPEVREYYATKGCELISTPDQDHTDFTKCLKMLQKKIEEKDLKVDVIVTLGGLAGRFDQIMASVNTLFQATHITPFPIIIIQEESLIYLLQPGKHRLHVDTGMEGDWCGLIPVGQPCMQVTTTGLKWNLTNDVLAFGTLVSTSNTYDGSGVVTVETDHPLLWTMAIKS
UniProt O60784, whole entry, looked up: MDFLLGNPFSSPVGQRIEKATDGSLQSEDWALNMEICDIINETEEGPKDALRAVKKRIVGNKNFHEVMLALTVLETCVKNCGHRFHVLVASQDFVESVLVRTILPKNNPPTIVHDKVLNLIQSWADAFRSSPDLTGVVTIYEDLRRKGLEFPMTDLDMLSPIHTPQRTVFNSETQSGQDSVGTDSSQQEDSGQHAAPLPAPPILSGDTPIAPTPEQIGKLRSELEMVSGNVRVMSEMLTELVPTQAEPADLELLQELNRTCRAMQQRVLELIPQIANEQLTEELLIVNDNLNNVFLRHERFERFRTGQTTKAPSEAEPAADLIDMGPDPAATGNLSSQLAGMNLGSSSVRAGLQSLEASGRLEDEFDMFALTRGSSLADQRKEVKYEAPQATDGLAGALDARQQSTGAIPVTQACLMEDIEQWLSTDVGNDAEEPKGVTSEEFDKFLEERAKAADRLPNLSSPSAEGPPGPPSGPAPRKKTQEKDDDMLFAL
UniProt Q9P0U1: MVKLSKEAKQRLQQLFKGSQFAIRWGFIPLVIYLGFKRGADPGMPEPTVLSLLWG
UniProt O75674: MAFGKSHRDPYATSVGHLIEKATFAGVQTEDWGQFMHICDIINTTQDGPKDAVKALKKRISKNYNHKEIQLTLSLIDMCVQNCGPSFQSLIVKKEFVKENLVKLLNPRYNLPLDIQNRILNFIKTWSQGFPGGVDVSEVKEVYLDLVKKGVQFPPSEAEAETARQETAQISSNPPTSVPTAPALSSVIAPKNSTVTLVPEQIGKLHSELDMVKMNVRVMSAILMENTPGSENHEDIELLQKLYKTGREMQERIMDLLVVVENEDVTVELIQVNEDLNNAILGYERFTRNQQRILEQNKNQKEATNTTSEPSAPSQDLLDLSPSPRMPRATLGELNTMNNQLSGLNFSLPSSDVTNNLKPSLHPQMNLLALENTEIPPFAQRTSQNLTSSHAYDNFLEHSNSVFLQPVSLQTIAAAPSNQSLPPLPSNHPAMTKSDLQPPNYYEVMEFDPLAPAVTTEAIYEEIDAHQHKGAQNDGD
UniProt Q12815: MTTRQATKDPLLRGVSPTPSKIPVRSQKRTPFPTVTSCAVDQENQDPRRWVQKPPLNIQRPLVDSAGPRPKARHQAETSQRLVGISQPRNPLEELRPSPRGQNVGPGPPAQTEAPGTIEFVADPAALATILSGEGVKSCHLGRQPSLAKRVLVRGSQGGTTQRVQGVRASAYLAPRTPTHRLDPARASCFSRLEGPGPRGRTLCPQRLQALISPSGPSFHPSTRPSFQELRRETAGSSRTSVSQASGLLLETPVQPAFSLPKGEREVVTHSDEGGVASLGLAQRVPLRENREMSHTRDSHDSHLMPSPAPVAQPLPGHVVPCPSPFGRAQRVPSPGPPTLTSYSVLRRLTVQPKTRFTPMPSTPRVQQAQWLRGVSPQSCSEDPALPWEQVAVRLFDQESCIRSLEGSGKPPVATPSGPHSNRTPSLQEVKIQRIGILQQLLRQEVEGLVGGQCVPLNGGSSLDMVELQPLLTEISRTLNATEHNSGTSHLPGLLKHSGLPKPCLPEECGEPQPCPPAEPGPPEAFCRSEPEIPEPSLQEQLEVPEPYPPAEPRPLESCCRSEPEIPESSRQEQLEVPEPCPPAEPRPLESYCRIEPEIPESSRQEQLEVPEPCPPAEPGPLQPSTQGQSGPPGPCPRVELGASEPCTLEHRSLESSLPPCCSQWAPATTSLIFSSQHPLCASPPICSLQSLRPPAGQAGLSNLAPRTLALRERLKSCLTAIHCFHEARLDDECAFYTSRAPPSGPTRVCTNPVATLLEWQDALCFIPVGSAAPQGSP
UniProt Q9NUP7: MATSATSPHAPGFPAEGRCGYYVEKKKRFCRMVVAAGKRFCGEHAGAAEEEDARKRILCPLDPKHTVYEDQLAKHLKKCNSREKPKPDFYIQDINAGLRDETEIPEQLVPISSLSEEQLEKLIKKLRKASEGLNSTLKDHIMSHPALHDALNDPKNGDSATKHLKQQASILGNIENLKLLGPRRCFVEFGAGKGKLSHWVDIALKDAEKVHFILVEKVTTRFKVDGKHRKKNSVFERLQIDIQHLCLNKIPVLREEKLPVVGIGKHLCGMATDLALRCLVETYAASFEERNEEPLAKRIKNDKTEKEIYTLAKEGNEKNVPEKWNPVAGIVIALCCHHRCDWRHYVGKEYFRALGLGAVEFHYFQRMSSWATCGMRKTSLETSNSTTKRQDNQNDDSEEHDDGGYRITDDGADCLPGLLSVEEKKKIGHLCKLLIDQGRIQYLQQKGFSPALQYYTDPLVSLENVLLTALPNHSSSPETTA
UniProt Q15643: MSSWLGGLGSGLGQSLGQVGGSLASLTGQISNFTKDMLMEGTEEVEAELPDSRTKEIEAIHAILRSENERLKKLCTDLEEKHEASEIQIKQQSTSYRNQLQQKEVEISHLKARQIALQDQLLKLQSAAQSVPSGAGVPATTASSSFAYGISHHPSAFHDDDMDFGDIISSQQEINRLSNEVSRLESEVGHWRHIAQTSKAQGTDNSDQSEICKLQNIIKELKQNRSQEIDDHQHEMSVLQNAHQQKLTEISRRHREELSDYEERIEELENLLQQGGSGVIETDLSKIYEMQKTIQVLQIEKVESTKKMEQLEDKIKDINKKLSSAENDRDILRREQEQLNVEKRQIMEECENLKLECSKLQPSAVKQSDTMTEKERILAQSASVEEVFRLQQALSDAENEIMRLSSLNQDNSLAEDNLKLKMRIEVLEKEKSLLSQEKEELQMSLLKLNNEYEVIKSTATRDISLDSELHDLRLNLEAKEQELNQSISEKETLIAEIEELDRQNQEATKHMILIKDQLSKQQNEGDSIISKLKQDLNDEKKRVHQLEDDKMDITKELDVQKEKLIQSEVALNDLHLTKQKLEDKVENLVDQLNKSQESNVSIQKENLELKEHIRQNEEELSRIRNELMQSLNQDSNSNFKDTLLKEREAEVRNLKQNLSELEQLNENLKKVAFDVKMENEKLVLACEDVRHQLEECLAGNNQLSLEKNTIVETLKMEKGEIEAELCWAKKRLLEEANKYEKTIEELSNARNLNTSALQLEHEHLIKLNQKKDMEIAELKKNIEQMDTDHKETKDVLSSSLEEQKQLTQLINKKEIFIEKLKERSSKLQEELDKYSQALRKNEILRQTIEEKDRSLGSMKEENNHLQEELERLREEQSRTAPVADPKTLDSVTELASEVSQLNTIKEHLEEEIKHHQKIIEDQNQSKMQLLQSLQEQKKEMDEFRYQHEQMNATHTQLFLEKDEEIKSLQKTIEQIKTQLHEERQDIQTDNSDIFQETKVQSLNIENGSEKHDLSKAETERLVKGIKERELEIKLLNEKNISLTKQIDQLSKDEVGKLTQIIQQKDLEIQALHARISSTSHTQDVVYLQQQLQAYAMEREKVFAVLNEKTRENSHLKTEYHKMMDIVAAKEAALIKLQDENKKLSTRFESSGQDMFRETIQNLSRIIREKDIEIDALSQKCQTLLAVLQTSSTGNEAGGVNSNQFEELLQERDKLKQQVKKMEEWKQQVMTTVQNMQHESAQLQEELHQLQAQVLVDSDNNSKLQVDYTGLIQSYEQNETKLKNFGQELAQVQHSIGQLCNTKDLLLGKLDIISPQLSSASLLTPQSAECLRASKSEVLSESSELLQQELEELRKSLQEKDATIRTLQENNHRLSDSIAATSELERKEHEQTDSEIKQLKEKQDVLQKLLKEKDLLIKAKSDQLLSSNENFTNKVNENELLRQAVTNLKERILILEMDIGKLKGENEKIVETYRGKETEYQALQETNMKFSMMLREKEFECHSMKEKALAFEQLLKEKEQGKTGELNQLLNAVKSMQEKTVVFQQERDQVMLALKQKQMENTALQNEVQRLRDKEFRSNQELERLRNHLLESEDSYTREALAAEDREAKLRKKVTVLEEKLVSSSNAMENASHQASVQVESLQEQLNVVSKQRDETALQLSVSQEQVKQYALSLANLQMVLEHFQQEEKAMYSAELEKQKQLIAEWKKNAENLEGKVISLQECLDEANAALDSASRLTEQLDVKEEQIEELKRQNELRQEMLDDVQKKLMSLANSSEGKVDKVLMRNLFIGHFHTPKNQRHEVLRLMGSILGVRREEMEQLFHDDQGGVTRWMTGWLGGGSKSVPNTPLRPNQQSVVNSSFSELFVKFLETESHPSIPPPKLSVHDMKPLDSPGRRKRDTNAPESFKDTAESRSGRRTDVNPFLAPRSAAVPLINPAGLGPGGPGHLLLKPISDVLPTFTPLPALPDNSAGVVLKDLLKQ
UniProt P02585, whole entry, looked up: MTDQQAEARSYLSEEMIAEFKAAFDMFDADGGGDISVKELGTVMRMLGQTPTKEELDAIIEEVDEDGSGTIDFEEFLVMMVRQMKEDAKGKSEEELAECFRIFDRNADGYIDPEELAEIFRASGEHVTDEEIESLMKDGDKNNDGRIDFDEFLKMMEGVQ
UniProt Q96Q05, whole entry, looked up: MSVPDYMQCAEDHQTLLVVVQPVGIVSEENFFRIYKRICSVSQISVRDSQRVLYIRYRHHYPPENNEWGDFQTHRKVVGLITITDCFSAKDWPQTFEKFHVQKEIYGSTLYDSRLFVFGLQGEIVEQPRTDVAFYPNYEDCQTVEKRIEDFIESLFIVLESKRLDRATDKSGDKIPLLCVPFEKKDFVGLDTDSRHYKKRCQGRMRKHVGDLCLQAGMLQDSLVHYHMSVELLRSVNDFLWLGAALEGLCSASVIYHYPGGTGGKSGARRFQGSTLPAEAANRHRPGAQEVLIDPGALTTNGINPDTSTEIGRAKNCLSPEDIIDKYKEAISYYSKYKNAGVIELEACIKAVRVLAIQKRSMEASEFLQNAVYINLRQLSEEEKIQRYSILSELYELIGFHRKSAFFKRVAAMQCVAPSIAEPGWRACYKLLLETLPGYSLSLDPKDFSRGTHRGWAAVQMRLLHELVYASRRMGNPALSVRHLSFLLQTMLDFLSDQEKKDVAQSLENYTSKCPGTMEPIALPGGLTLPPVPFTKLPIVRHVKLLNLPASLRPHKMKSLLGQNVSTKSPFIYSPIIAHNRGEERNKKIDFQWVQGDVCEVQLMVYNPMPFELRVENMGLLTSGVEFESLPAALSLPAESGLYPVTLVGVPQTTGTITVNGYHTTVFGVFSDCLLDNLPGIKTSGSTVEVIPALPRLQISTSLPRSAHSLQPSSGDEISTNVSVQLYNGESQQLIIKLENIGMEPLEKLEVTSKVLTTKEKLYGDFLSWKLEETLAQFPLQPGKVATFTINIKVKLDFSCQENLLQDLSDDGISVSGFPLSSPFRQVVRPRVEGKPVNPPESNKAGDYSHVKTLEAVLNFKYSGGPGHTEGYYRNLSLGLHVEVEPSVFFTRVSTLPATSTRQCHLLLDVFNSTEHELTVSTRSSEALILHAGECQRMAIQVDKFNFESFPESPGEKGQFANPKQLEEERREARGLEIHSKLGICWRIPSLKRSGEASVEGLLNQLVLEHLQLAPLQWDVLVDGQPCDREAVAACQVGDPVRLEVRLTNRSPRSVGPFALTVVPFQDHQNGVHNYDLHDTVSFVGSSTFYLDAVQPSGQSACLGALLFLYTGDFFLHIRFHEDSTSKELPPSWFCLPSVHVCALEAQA

Tests used:
Assay in all cases: log2 fold change, soluble protein after heating vs DMSO (PISA); higher = thermal stabilisation; K562 cells, 10 uM, 30 min; active = over 0.2 and 3.5 SD of the protein, either way, in both replicates (recomputed)
bafetinib = compound: Cc1ccc(NC(=O)c2ccc(CN3CC[C@H](N(C)C)C3)c(C(F)(F)F)c2)cc1Nc1nccc(-c2cncnc2)n1 [bafetinib]
Method in brief: (§1)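 K562 cells at 2×10^6 cells/mL were treated with 10 μM compound for 30 min. Aliquots were heated for 3 min across 48°C-58°C, pooled, and extracted in PBS with 0.5% NP-40 at 4°C; soluble protein was the supernatant after 21,000xg for 90 min. Soluble protein was quantified by TMTpro 16plex LC-MS/MS with channel sums equalised, and reported as log2 fold change in thermal stability against DMSO controls, with values from duplicates.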

[1] = compound: Cc1cccc(CC(=O)N2CCc3c2ccc(-c2cn(C)c4ncnc(N)c24)c3F)n1
Method in brief: as §1

nilotinib = compound: Cc1cn(-c2cc(NC(=O)c3ccc(C)c(Nc4nccc(-c5cccnc5)n4)c3)cc(C(F)(F)F)c2)cn1 [nilotinib]
Method in brief: as §1

[2] = compound: Cc1nc(Nc2n[nH]c3c2CN(C(=O)N[C@H](CN(C)C)c2ccccc2)C3(C)C)c2sccc2n1
Method in brief: as §1

dasatinib = compound: Cc1nc(Nc2ncc(C(=O)Nc3c(C)cccc3Cl)s2)cc(N2CCN(CCO)CC2)n1 [dasatinib]
Method in brief: as §1

[3] = compound: Cc1ncc(-c2ccnc(Nc3ccc(S(C)(=O)=O)cc3)n2)n1C(C)C
Method in brief: as §1

[4] = compound: Cn1cc(-c2ccc3c(c2)CCN3C(=O)Cc2cccc(C(F)(F)F)c2)c2c(N)ncnc21
Method in brief: as §1

[5] = compound: Cn1cc(-c2ccc3nnc(C(F)(F)c4ccc5ncccc5c4)n3n2)cn1
Method in brief: as §1

tipifarnib = compound: Cn1cncc1[C@@](N)(c1ccc(Cl)cc1)c1ccc2c(c1)c(-c1cccc(Cl)c1)cc(=O)n2C [tipifarnib]
Method in brief: as §1

mubritinib = compound: FC(F)(F)c1ccc(/C=C/c2nc(COc3ccc(CCCCn4ccnn4)cc3)co2)cc1 [mubritinib]
Method in brief: as §1

Target	log2 fold change (bafetinib)	log2 fold change [1]	log2 fold change (nilotinib)	log2 fold change [2]	log2 fold change (dasatinib)	log2 fold change [3]	log2 fold change [4]	log2 fold change [5]	log2 fold change (tipifarnib)	log2 fold change (mubritinib)
TRIP6 (UniProt Q15654)	inactive: -0.019	inactive: 0.007	inactive: 0.037	inactive: -0.035	inactive: 0.037	inactive: 0.004	inactive: 0.001	inactive: -0.027	inactive: -0.005	inactive: 0.008
TRIM56 (UniProt Q9BRZ2)	inactive: -0.183	inactive: -0.035	inactive: 0.057	inactive: 0.166	inactive: 0.047	inactive: -0.208	inactive: -0.275	inactive: -0.066	inactive: 0.195	inactive: -0.126
TOP3B (UniProt O95985)	inactive: 0.103	inactive: 0.051	inactive: -0.052	inactive: 0.073	inactive: -0.028	inactive: -0.026	inactive: -0.033	inactive: -0.112	inactive: 0.065	inactive: -0.053
TPM2 (UniProt P07951)	inactive: 0.034	inactive: 0.003	inactive: 0.126	inactive: -0.097	inactive: 0.072	inactive: 0.064	inactive: -0.019	inactive: -0.015	inactive: 0.086	inactive: 0.025
TRMU (UniProt O75648)	inactive: -0.063	inactive: -0.011	inactive: 0.034	inactive: -0.002	inactive: -0.047	inactive: 0.052	inactive: 0.015	inactive: 0.032	inactive: 0.05	inactive: -0.03
TSEN15 (UniProt Q8WW01)	inactive: -0.002	inactive: 0.025	inactive: 0.036	inactive: -0.029	inactive: 0.05	inactive: -0.015	inactive: 0.136	inactive: 0.113	inactive: 0.053	inactive: 0.012
TRIR (UniProt Q9BQ61)	inactive: -0.066	inactive: -0.078	inactive: 0.03	inactive: 0	inactive: 0.102	inactive: -0.005	inactive: 0.013	inactive: 0.012	inactive: 0.076	inactive: 0.058
TRMT61B (UniProt Q9BVS5)	inactive: 0.073	inactive: -0.037	inactive: 0.078	inactive: 0.05	inactive: 0.051	inactive: 0.006	inactive: 0.002	inactive: -0.105	inactive: 0.141	inactive: -0.032
TOMM40 (UniProt O96008)	inactive: 0.011	inactive: 0.015	inactive: -0.001	inactive: 0.026	inactive: 0.038	inactive: -0.025	inactive: 0.023	inactive: -0.002	inactive: -0.001	inactive: 0.029
TOMM20 (UniProt Q15388)	inactive: -0.194	inactive: -0.035	inactive: -0.002	inactive: -0.031	inactive: 0.039	inactive: 0.01	inactive: 0.003	inactive: 0.006	inactive: -0.095	inactive: 0.017
TP53RK (UniProt Q96S44)	inactive: -0.014	inactive: 0.034	inactive: -0.018	inactive: 0.026	inactive: 0.063	inactive: -0.012	inactive: 0.023	inactive: 0.013	inactive: -0.027	inactive: 0.016
TRIP12 isoform 3 (UniProt Q14669)	inactive: 0.073	inactive: -0.059	inactive: 0.031	inactive: -0.018	inactive: -0.352	inactive: 0.021	–	inactive: 0.168	–	inactive: 0.091
TRIM23 (UniProt P36406)	inactive: -0.006	inactive: -0.121	inactive: -0.091	inactive: 0.001	inactive: -0.004	inactive: 0.088	inactive: 0.126	inactive: 0.002	–	inactive: 0.028
TPK1 (UniProt Q9H3S4)	inactive: -0.005	inactive: -0.186	–	–	inactive: 0.044	–	inactive: -0.007	inactive: -0.026	inactive: 0.02	inactive: 0
TPMT (UniProt P51580)	inactive: -0.035	inactive: 0.023	inactive: 0.053	inactive: -0.052	inactive: 0.013	inactive: 0.01	inactive: 0.049	inactive: 0.016	inactive: -0.047	inactive: 0.026
TRRAP (UniProt Q9Y4A5)	inactive: -0.05	inactive: 0.02	inactive: 0	inactive: 0.02	inactive: 0.03	inactive: -0.041	inactive: -0.002	inactive: 0.006	inactive: 0.002	inactive: 0.03

Target	log2 fold change (bafetinib)	log2 fold change [1]	log2 fold change (nilotinib)	log2 fold change [2]	log2 fold change (dasatinib)	log2 fold change [3]	log2 fold change [4]	log2 fold change [5]	log2 fold change (tipifarnib)	log2 fold change (mubritinib)
TOM1 (UniProt O60784)	inactive: -0.288	inactive: -0.105	–	–	–	–	–	–	–	inactive: -0.222
TOMM7 (UniProt Q9P0U1)	inactive: -0.018	inactive: -0.005	inactive: 0.014	inactive: 0.014	inactive: 0.049	inactive: -0.083	–	inactive: 0.15	inactive: 0.051	inactive: 0.009
TRIP4 (UniProt Q15650)	inactive: -0.03	inactive: 0.015	inactive: -0.052	inactive: -0.05	inactive: -0.017	inactive: 0.014	inactive: -0.02	inactive: -0.096	inactive: -0.051	inactive: -0.088
TOP2A isoform 4 (UniProt P11388)	inactive: 0.308	inactive: 0.092	inactive: -0.119	inactive: 0.033	inactive: 0.102	inactive: -0.11	inactive: -0.29	inactive: -0.324	inactive: 0.104	inactive: -0.292
TOM1L1 (UniProt O75674)	inactive: -0.025	active: -0.265	inactive: -0.003	inactive: -0.069	inactive: -0.04	inactive: 0.087	inactive: 0.031	inactive: 0.032	inactive: 0.06	inactive: 0.034
TRIP13 (UniProt Q15645)	inactive: -0.087	inactive: 0.108	inactive: -0.089	inactive: -0.065	inactive: -0.081	inactive: -0.031	inactive: 0.024	inactive: 0.053	inactive: 0	inactive: 0.029
TROAP (UniProt Q12815)	inactive: -0.126	inactive: -0.015	–	–	–	–	–	inactive: -0.194	–	–
TNIK isoform 3 (UniProt Q9UKE5)	inactive: 0.046	inactive: -0.005	–	–	inactive: -0.072	–	inactive: 0.1	inactive: -0.013	inactive: -0.116	inactive: 0.053
TRIM4 (UniProt Q9C037)	inactive: 0.039	inactive: -0.015	inactive: 0.111	inactive: 0.101	–	inactive: 0.058	inactive: 0.042	inactive: -0.138	inactive: -0.014	inactive: 0.033
TSC2 (UniProt P49815)	inactive: -0.024	inactive: 0.109	–	–	–	–	inactive: 0.066	inactive: 0.047	inactive: 0.019	inactive: -0.048
TRMT13 (UniProt Q9NUP7)	inactive: -0.056	inactive: -0.016	inactive: -0.06	inactive: 0.03	inactive: -0.051	inactive: 0.054	inactive: 0.01	inactive: 0.032	inactive: 0.026	inactive: -0.004
TRIP11 (UniProt Q15643)	inactive: -0.049	inactive: 0.029	inactive: 0.151	inactive: 0.005	inactive: -0.337	inactive: 0.028	–	inactive: -0.066	inactive: 0.054	inactive: 0.064
TNNC2 (UniProt P02585)	inactive: -0.057	inactive: -0.058	inactive: 0.057	inactive: 0.024	inactive: 0.022	inactive: -0.015	inactive: 0.049	inactive: 0.032	inactive: 0.015	inactive: 0.001
TRIM21 (UniProt P19474)	inactive: 0.054	–	inactive: 0.113	inactive: -0.392	inactive: -0.142	inactive: -0.527	inactive: 0.122	–	inactive: -0.049	inactive: 0.136
TRAPPC9 isoform 2 (UniProt Q96Q05)	inactive: 0.016	inactive: 0.047	inactive: -0.035	inactive: 0.031	inactive: -0.107	inactive: -0.006	inactive: -0.006	inactive: -0.011	inactive: 0.019	inactive: 0.124
TSEN34 (UniProt Q9BSV6)	inactive: -0.01	–	inactive: -0.062	inactive: -0.086	inactive: -0.158	inactive: -0.004	inactive: 0.266	inactive: -0.025	inactive: -0.018	inactive: -0.137

A stretch from further up, as a working copy:
Target	log2 fold change (bafetinib)	log2 fold change [1]	log2 fold change (nilotinib)	log2 fold change [2]	log2 fold change (dasatinib)	log2 fold change [3]	log2 fold change [4]	log2 fold change [5]	log2 fold change (tipifarnib)	log2 fold change (mubritinib)
TRIP4 (UniProt Q15650)	inactive: -0.03	inactive: 0.015	inactive: -0.052	inactive: -0.05	inactive: -0.017	inactive: 0.014	inactive: -0.02	inactive: -0.096	inactive: -0.051	inactive: -0.088
TOP2A isoform 4 (UniProt P11388)	inactive: 0.308	inactive: 0.092	inactive: -0.119	inactive: 0.033	inactive: 0.102	inactive: -0.11	inactive: -0.29	inactive: -0.324	inactive: 0.104	inactive: -0.292
